Source: paper PMC2409314

The chains behind the UniProt entries cited, without tags or fusion partners. Where a name states a change or a piece, a line headed by the entry shows the natural chain unless it says otherwise.
UniProt P52947: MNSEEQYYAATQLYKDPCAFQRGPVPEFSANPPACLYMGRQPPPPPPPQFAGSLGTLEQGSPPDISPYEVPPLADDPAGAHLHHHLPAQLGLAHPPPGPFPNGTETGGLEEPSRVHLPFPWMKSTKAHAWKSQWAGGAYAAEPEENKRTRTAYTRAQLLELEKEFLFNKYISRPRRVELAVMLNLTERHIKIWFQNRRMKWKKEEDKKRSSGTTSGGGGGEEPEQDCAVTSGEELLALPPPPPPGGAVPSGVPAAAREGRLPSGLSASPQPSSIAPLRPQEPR

What was measured:
PBX1a (long isoform) = target: T1, PBX1a (long isoform) (UniProt P41778); assay: EMSA; conditions: tested alone; 2 ug nuclear extract or 1 ul ivt protein, 0.1 ng 32P ds oligo, 1 ug poly(dI-dC); antiserum preincubation 15 min at room temperature; protein translated in vitro; label: 32P (Klenow)
T1 sequence (looked up, limits assumed): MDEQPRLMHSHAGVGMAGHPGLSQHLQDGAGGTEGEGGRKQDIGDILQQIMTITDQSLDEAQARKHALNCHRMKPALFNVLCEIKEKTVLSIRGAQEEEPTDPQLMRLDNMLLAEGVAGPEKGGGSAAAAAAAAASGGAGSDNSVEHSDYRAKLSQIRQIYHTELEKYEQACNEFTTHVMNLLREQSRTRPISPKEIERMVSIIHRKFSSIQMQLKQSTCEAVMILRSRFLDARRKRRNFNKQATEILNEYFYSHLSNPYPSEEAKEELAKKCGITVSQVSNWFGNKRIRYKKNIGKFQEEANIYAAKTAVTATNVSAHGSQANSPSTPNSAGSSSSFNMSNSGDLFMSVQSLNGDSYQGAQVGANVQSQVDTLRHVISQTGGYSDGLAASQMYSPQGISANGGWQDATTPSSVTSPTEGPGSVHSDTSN

PDX1 (STF-1) = PDX1 (STF-1) (UniProt P52947); assay: EMSA; conditions: 2 ug nuclear extract or 1 ul ivt protein, 0.1 ng 32P ds oligo, 1 ug poly(dI-dC), antiserum preincubation 15 min at room temperature, recombinant protein
PREP1 = target: T2, PREP1 (UniProt P55347); assay: EMSA; conditions: tested alone; 2 ug nuclear extract or 1 ul ivt protein, 0.1 ng 32P ds oligo, 1 ug poly(dI-dC); antiserum preincubation 15 min at room temperature; protein translated in vitro; label: 32P (Klenow)
T2 sequence (looked up, limits assumed): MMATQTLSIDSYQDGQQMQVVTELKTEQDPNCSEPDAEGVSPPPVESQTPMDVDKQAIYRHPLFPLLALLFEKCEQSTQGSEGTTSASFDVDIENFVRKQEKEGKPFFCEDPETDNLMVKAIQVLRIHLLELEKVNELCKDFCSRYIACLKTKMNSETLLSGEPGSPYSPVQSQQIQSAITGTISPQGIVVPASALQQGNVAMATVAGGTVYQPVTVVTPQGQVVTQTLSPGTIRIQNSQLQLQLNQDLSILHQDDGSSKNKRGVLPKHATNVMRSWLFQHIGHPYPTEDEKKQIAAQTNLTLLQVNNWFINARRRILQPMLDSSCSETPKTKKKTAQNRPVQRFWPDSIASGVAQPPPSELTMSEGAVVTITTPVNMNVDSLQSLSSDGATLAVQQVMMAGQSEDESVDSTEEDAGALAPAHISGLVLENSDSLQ

[1] = tested on: PBX long isoforms (PBX1a/PBX2/PBX3a) + PREP1 + PDX1; assay: EMSA supershift; conditions: complex T', PDX1, PBX long and PREP1 antibodies; 2 ug nuclear extract or 1 ul ivt protein, 0.1 ng 32P ds oligo, 1 ug poly(dI-dC); antiserum preincubation 15 min at room temperature; protein in an extract; label: 32P (Klenow)
[2] = tested on: PBX long isoforms (PBX1a/PBX2/PBX3a) + PREP1; assay: EMSA supershift; conditions: 2 ug nuclear extract or 1 ul ivt protein, 0.1 ng 32P ds oligo, 1 ug poly(dI-dC), antiserum preincubation 15 min at room temperature, protein in an extract, label: 32P (Klenow)
PDX1 [3] = assay: EMSA; conditions: 2 ug nuclear extract or 1 ul ivt protein, 0.1 ng 32P ds oligo, 1 ug poly(dI-dC); antiserum preincubation 15 min at room temperature; protein in an extract; label: 32P (Klenow) as probe, unlabeled as competitor
[4] = tested on: PBX long isoforms (PBX1a/PBX2/PBX3a) + PREP1 + PDX1; assay: EMSA; competition; conditions: PA1a probe, and as competitor of PA1b probe; 2 ug nuclear extract or 1 ul ivt protein, 0.1 ng 32P ds oligo, 1 ug poly(dI-dC); antiserum preincubation 15 min at room temperature; protein in an extract; label: 32P (Klenow) as probe, unlabeled as competitor
[5] = tested on: PBX long isoforms (PBX1a/PBX2/PBX3a) + PREP1; assay: EMSA; competition; conditions: PA1a probe, and as competitor of PA1b probe; 2 ug nuclear extract or 1 ul ivt protein, 0.1 ng 32P ds oligo, 1 ug poly(dI-dC); antiserum preincubation 15 min at room temperature; protein in an extract; label: 32P (Klenow) as probe, unlabeled as competitor
PDX1 [6] = assay: EMSA supershift; conditions: complex lost with PDX1 antibody, competed by PC3b; 2 ug nuclear extract or 1 ul ivt protein, 0.1 ng 32P ds oligo, 1 ug poly(dI-dC); antiserum preincubation 15 min at room temperature; protein in an extract; label: 32P (Klenow)
[7] = tested on: PBX long isoforms (PBX1a/PBX2/PBX3a) + PREP1 + PDX1; assay: EMSA; conditions: T and T' complexes never detected; 2 ug nuclear extract or 1 ul ivt protein, 0.1 ng 32P ds oligo, 1 ug poly(dI-dC); antiserum preincubation 15 min at room temperature; protein in an extract; label: 32P (Klenow)
[8] = tested on: PBX long isoforms (PBX1a/PBX2/PBX3a) + PREP1; assay: competition with a labelled probe; conditions: 10 ng (100-fold) unlabeled, 2 ug nuclear extract or 1 ul ivt protein, 0.1 ng 32P ds oligo, 1 ug poly(dI-dC), antiserum preincubation 15 min at room temperature, protein in an extract, label: unlabeled competitor
PDX1 [9] = assay: competition with a labelled probe; conditions: 10 ng unlabeled, PC3b probe; 2 ug nuclear extract or 1 ul ivt protein, 0.1 ng 32P ds oligo, 1 ug poly(dI-dC); antiserum preincubation 15 min at room …; protein in an extract; label: unlabeled competitor

GATCGCATCACGATCAATCACAGCGCT (double strand) [PA1b]
binding result (PBX1a (long isoform)): no binding
binding result (PDX1 (STF-1); without PBX and PREP1, label: 32P (Klenow)): no binding
binding result (PREP1): no binding
binding result [1]: binds
binding result ([2]; complex L, blocked by PBX long and PREP1 antibodies): binds

GATCGGGGTCTAAACGGTGCAG (double strand) [PC3a]
binding result (PDX1 (STF-1); label: 32P (Klenow) as probe, unlabeled as competitor): no binding
binding result (PDX1 [3]): no binding

GATCTAATTTTGTTGTACCATGATATCG (double strand) [PA1a]
binding result [4]: no binding
binding result [5]: no binding

GATCTAGCTCTTAATTGTGGTT (double strand) [PC3b]
binding result (PDX1 [6]): binds

GATCTGGCAGCTGTCAATCATTTC (double strand) [PA2b]
binding result [7]: no binding
binding result ([2]; complex L, competed by PA2b, PA1b, UE-A): binds

GATCTTCTTTCCTTCCTTTTGC (double strand) [UE-Amut]
binding result ([8]; PA1b probe): no binding
binding result (PDX1 [9]): no binding

GATCTTCTTTGATTGATTTTGC (double strand) [UE-A]
binding result ([8]; PA1b or PA2b probe): binds
binding result (PDX1 [9]): no binding

GATCTTGACCGCATGATAAGC (double strand) [PC1b]
binding result [2]: binds

The exact form of at least one protein or probe is not confirmed. For some assays here: Negatives hold for the conditions tested. For some assays here: At least one verdict was read from the data and is not stated in words by the source. For some assays here: Where a protein sequence is shown, tags need not be part of it. For some assays here: Where cells or extracts were used, other partners may take part.
